Results as given in patent publication US11999727B2 (Tango Therapeutics, Inc., priority 2020, dated 2024).
At least one structure is not confirmed: it was looked up by name or label, or the drawing left a doubt.

Experiments:
Assay type in all cases: cell-based
[1] = tested on: MTAP-null A101D cancer cell line; experiment: 7-day viability assay, combination with an exemplar MTAP-null-selective PRMT5 inhibitor, A101D; settings: in combination with an exemplar MTAP-null-selective PRMT5 inhibitor
[2] = tested on: MTAP-null SW1573 cancer cell line; experiment: 7-day viability assay, combination with an exemplar MTAP-null-selective PRMT5 inhibitor, SW1573; settings: in combination with an exemplar MTAP-null-selective PRMT5 inhibitor
From the text: FIG. 3. Combination of AG-270, a MAT2A inhibitor effect is synergistic according to the HSA model, where the synergy score quantifies the excess of the highest single compound response

[3] = tested on: MTAP-null SW1573 cancer cell line; experiment: Combination viability assay (CellTiter-Glo, 7 days), SW1573 MTAP-deleted cells; settings: 7-day viability assay, combination partner: exemplar MTAPnull-selective PRMT5 inhibitor
Method: A SW1573 MTAP-isogenic cell line pair was generated by either reconstituting MTAP gene expression, or by introducing an empty control vector, in the MTAP-deleted SW1573 parental cell line. The cell lines were maintained in DMEM+10% FBS in a humidified, 5% CO2 tissue culture incubator. All test compounds are maintained as 10 mM DMSO stocks.
On Day 0, MTAP-intact and MTAP-deleted cells are seeded in a 384-well plate, and incubated in a humidified, 5% CO2 tissue culture incubator for 16-24 hours. On Day 1, the test compounds are dispensed to wells at defined concentrations (n=2), and the volume of DMSO is normalized to highest class volume. The compound-treated plates are incubated for 7 days in a humidified, 5% CO2 tissue culture incubator.
On Day 7, the plates are removed from the tissue culture incubator and allowed to equilibrate to room temperature. Relative viability is assessed by addition of CellTiter-Glo reagent, and data are plotted as % of DMSO control for each compound in each cell line, with a 4-parameter fit non-linear regression model (GraphPad Prism). Synergy is determined according to the HSA model by the Combenefit software package (Version 2.021).

Row | SMILES | Effect of the combination on cellular viability [1] | Effect of the combination on cellular viability [2] | cellular viability, combination with an exemplar MTAP-null-selective PRMT5 inhibitor [3]
1 | CC(=O)c1c(C)c2cnc(Nc3ccc(N4CCNCC4)cn3)nc2n(C2CCCC2)c1=O [palbociclib] | enhanced cellular viability defects | – | –
2 | CC(=O)Nc1cccc(-n2c(=O)n(C3CC3)c(=O)c3c(Nc4ccc(I)cc4F)n(C)c(=O)c(C)c32)c1 [trametinib] | – | enhanced cellular viability defects | enhanced cellular viability defects
3 | CCN1CCN(Cc2ccc(Nc3ncc(F)c(-c4cc(F)c5nc(C)n(C(C)C)c5c4)n3)nc2)CC1 [abemaciclib] | enhanced cellular viability defects | – | –
